These are yes or no findings as the source states them, for the method shown. In cells and extracts the contact can be indirect. These calls come from enrichment with a bait or labelling near it, and not all partners need be listed. Blank lines part the entries; values can stand above or below the binder they belong to.
Target: T1, FRS2-mNeonGreen (human) (UniProt Q8WU20)
T1 sequence: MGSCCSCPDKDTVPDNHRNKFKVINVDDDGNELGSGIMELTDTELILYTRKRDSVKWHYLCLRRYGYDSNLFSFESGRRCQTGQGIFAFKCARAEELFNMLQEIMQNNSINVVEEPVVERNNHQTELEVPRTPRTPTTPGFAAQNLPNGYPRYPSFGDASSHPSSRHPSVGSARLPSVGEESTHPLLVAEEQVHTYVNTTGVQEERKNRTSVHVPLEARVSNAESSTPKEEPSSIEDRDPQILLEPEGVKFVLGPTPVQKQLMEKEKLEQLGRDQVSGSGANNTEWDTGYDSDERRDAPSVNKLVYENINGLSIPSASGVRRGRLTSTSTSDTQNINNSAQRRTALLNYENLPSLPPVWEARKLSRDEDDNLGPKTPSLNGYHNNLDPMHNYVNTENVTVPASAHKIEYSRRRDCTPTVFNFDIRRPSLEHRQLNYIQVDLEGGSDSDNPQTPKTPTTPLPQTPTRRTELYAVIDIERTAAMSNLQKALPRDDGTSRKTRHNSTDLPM
Assay: affinity purification with mass spectrometry; mNeonGreen-Trap IP from bFGF-stimulated (50 ng/mL, 5 min) UW228 FRS2-mNG cells against UW228 WT; on-bead digestion, DIA LC-MS/MS, SAINTexpress; hits log2FC >= 1 and bFDR <= 0.05; n = 3

binding: binds
B1: Phospholipid-transporting ATPase IG (protein, UniProt Q8NB49 1-1132)
chain: MQMVPSLPPASECAGEEKRVGTRTVFVGNHPVSETEAYIAQRFCDNRIVSSKYTLWNFLPKNLFEQFRRIANFYFLIIFLVQVTVDTPTSPVTSGLPLFFVITVTAIKQGYEDCLRHRADNEVNKSTVYIIENAKRVRKESEKIKVGDVVEVQADETFPCDLILLSSCTTDGTCYVTTASLDGESNCKTHYAVRDTIALCTAESIDTLRAAIECEQPQPDLYKFVGRINIYSNSLEAVARSLGPENLLLKGATLKNTEKIYGVAVYTGMETKMALNYQGKSQKRSAVEKSINAFLIVYLFILLTKAAVCTTLKYVWQSTPYNDEPWYNQKTQKERETLKVLKMFTDFLSFMVLFNFIIPVSMYVTVEMQKFLGSFFISWDKDFYDEEINEGALVNTSDLNEELGQVDYVFTDKTGTLTENSMEFIECCIDGHKYKGVTQEVDGLSQTDGTLTYFDKVDKNREELFLRALCLCHTVEIKTNDAVDGATESAELTYISSSPDEIALVKGAKRYGFTFLGNRNGYMRVENQRKEIEEYELLHTLNFDAVRRRMSVIVKTQEGDILLFCKGADSAVFPRVQNHEIELTKVHVERNAMDGYRTLCVAFKEIAPDDYERINRQLIEAKMALQDREEKMEKVFDDIETNMNLIGATAVEDKLQDQAAETIEALHAAGLKVWVLTGDKMETAKSTCYACRLFQTNTELLELTTKTIEESERKEDRLHELLIEYRKKLLHEFPKSTRSFKKAWTEHQEYGLIIDGSTLSLILNSSQDSSSNNYKSIFLQICMKCTAVLCCRMAPLQKAQIVRMVKNLKGSPITLSIGDGANDVSMILESHVGIGIKGKEGRQAARNSDYSVPKFKHLKKLLLAHGHLYYVRIAHLVQYFFYKNLCFILPQFLYQFFCGFSQQPLYDAAYLTMYNICFTSLPILAYSLLEQHINIDTLTSDPRLYMKISGNAMLQLGPFLYWTFLAAFEGTVFFFGTYFLFQTASLEENGKVYGNWTFGTIVFTVLVFTVTLKLALDTRFWTWINHFVIWGSLAFYVFFSFFWGGIIWPFLKQQRMYFVFAQMLSSVSTWLAIILLIFISLFPEILLIVLKNVRRRSARRNLSCRRASDSLSARPSVRPLLLRTFSDESNVL

binding: binds
B2: Proton-coupled zinc antiporter SLC30A1 (protein, UniProt Q9Y6M5 1-507)
chain: MGCWGRNRGRLLCMLALTFMFMVLEVVVSRVTSSLAMLSDSFHMLSDVLALVVALVAERFARRTHATQKNTFGWIRAEVMGALVNAIFLTGLCFAILLEAIERFIEPHEMQQPLVVLGVGVAGLLVNVLGLCLFHHHSGFSQDSGHGHSHGGHGHGHGLPKGPRVKSTRPGSSDINVAPGEQGPDQEETNTLVANTSNSNGLKLDPADPENPRSGDTVEVQVNGNLVREPDHMELEEDRAGQLNMRGVFLHVLGDALGSVIVVVNALVFYFSWKGCSEGDFCVNPCFPDPCKAFVEIINSTHASVYEAGPCWVLYLDPTLCVVMVCILLYTTYPLLKESALILLQTVPKQIDIRNLIKELRNVEGVEEVHELHVWQLAGSRIIATAHIKCEDPTSYMEVAKTIKDVFHNHGIHATTIQPEFASVGSKSSVVPCELACRTQCALKQCCGTLPQAPSGKDAEKTPAVSISCLELSNNLEKKPRRTKAENIPAVVIEIKNMPNKQPESSL
